Source: the supplement of paper PMC6078165
The reference is the same well before dosing, and untreated signal decays as well.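 Labels refer to human fibroblasts, largely primary: uterine (C12385, HUF), lung (H6013), bone (Hs27A), adrenal (HADF), skin (WS1), plus mammary HMF and breast cancer-associated Hs343T. Cancer lines are basal-like or mesenchymal-like triple-negative breast cancer. The paper counts as hits responses shifting over 3x the replicate standard deviation. The tissue of the other fibroblasts is not given here.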

System: HCC1143
Test: relative JC-1 red fluorescence (viability) vs pre-drug, coculture with fibroblast (fraction); higher = more viable cancer cells
Procedure: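 JC-1 labelled TNBC cells cocultured 1:1 (1,500 cells each) with CellTrace Violet stained primary or stromal fibroblasts in 384-well plates in FluoroBrite medium, treated with one of 42 anticancer drugs at 0.1, 1, 10 or 100 uM. JC-1 red fluorescence (mitochondrial integrity in cancer cells only) was read by plate reader every 8 h for 72 h. Values are normalised to each well's pre-drug value. The stock of one drug was tenfold lower, so its dose labels may be too high.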

CC/C(=C(\c1ccccc1)c1ccc(OCCN(C)C)cc1)c1ccccc1 [Tamoxifen]
relative JC-1 red fluorescence
Settings	8 h	16 h	24 h	32 h	40 h	48 h	56 h	64 h	72 h
1 µM, coculture fibroblast: C12385	–	–	–	–	–	0.552	0.517	0.476	0.456
1 µM, coculture fibroblast: H6013	–	–	–	–	–	0.67	0.649	0.627	0.6078
1 µM, coculture fibroblast: H6019	–	–	–	–	–	0.6073	0.5659	0.521	0.4875
1 µM, coculture fibroblast: H6076	–	–	–	–	–	0.742	0.711	0.699	0.703
1 µM, coculture fibroblast: H6231	–	–	–	–	–	0.617	0.579	0.537	0.524
1 µM, coculture fibroblast: HADF	–	–	–	–	–	0.498	0.461	0.428	0.421
1 µM, coculture fibroblast: HCFa	–	–	–	–	–	0.538	0.491	0.454	0.426
1 µM, coculture fibroblast: HCPF	–	–	–	–	–	0.662	0.631	0.601	0.59
1 µM, coculture fibroblast: HHSteC	–	–	–	–	0.632	0.606	0.565	0.538	0.502
1 µM, coculture fibroblast: HMF	–	–	–	–	0.733	0.708	0.662	0.642	0.621
1 µM, coculture fibroblast: HPFa	–	–	–	–	0.659	0.616	0.543	0.488	0.436
1 µM, coculture fibroblast: HUF	–	–	–	–	0.632	0.608	0.556	0.52	0.486
1 µM, coculture fibroblast: Hs5	–	–	–	–	0.731	0.705	0.674	0.652	0.64
1 µM, coculture fibroblast: Hs27A	–	–	–	–	0.528	0.521	0.469	0.442	0.382
1 µM, coculture fibroblast: Hs343T	–	–	–	–	0.767	0.75	0.721	0.714	0.697
1 µM, coculture fibroblast: WS1	–	–	–	–	0.676	0.647	0.611	0.583	0.563
10 µM, coculture fibroblast: C12385	0.8859	0.8522	0.794	0.736	0.679	0.64	0.603	0.559	0.531
10 µM, coculture fibroblast: H6013	0.821	0.785	0.774	0.808	0.718	0.706	0.698	0.687	0.773
10 µM, coculture fibroblast: H6019	0.85992	0.849	0.834	0.767	0.703	0.684	0.738	0.762	0.715
10 µM, coculture fibroblast: H6076	0.8063	0.89	0.879	0.789	0.82	0.807	0.768	0.739	0.72
10 µM, coculture fibroblast: H6231	0.841	0.849	0.848	0.671	0.851	0.807	0.79	0.755	0.726
10 µM, coculture fibroblast: HADF	0.7357	0.683	0.67	0.729	0.596	0.555	0.537	0.509	0.641
10 µM, coculture fibroblast: HCFa	0.8487	0.8126	0.817	0.864	0.775	0.75	0.719	0.691	0.741
10 µM, coculture fibroblast: HCPF	0.811	0.869	0.867	0.747	0.764	0.726	0.819	0.763	0.745
10 µM, coculture fibroblast: HHSteC	0.853	0.8073	0.789	0.783	0.711	0.681	0.659	0.639	0.655
10 µM, coculture fibroblast: HMF	0.8221	0.952	0.93036	0.761	0.865	0.8243	0.764	0.7265	0.6865
10 µM, coculture fibroblast: HPFa	0.902	0.84	0.78654	0.687	0.639	0.606	0.572	0.531	0.506
10 µM, coculture fibroblast: HUF	0.908	0.851	0.8242	0.7595	0.725	0.685	0.648	0.608	0.573
10 µM, coculture fibroblast: Hs5	0.8526	0.9693	0.946	0.866	0.829	0.796	0.751	0.722	0.69
10 µM, coculture fibroblast: Hs27A	0.7694	0.7336	0.70508	0.765	0.594	0.555	0.537	0.518	0.6484
10 µM, coculture fibroblast: Hs343T	0.8596	0.952	0.97	0.808	0.887	0.834	0.784	0.753	0.696
10 µM, coculture fibroblast: WS1	0.8645	0.8091	0.76978	0.722	0.673	0.636	0.595	0.559	0.5299
